Measurements reported in PMC5652769.
These are yes or no findings as the source states them, for the method shown. Binding seen in cells or lysates may run through a third protein. Some entries that bind do so weakly or less than the wild type.

Sequences of proteins named here, by UniProt entry; tags and fusion partners are left off.
UniProt P03372: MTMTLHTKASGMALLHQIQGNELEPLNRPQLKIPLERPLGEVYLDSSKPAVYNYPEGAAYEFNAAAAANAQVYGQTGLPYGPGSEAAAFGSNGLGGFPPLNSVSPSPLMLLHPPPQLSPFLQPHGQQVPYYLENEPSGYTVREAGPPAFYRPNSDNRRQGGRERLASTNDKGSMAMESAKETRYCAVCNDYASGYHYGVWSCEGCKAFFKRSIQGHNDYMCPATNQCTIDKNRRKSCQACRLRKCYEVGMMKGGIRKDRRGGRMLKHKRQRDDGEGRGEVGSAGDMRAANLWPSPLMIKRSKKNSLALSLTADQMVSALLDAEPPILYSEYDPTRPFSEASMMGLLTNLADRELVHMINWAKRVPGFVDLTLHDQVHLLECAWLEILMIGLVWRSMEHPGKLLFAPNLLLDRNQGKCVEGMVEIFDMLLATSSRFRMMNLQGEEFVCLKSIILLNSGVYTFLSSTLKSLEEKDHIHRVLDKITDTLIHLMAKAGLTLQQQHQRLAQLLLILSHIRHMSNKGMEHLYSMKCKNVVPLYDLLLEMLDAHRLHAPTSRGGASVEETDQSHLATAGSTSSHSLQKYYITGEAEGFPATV

Key:
[1] = target: T1, SHARPIN (Shank-Interacting protein-like 1, SIPL1) (human (endogenous in MCF-7)) (UniProt Q9H0F6); test: co-IP; cytoplasmic and nuclear fractions (subcellular protein fractionation kit, Thermo Scientific 78840); Vinculin and Histone-3 as fraction controls
T1 sequence: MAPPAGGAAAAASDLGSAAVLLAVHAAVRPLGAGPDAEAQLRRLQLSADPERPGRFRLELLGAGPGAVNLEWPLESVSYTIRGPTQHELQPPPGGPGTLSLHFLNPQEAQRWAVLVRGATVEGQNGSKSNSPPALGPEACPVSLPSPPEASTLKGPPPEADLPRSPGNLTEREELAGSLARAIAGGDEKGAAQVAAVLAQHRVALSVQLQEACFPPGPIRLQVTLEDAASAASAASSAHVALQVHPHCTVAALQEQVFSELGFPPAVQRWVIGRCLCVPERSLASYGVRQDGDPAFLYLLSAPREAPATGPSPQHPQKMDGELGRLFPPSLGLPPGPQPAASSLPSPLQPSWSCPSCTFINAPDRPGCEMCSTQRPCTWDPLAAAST

[2] = target: T1, SHARPIN (Shank-Interacting protein-like 1, SIPL1) (human (endogenous in MCF-7)); test: co-IP; MCF7 cell lysate (100 ug) pre-cleared with rabbit IgG, incubated with SHARPIN antibody (AB69507) overnight; rabbit IgG as negative control; bound protein analysed with ERα antibody

binding [1]: binds
binding [2]: binds
Substance: Estrogen receptor α (from UniProt P03372 1-595)
